What was measured:
[1] = target: T1, OATP1B1 (Homo sapiens, UniProt Q9Y6L6); assay: Competitive counterflow (CCF) assay, efflux of preloaded [3H]-EβG in OATP1B1-overexpressing HEK293 cells; conditions: at all three tested concentrations (1, 10, 100 μmol/L)
T1 sequence (Q9Y6L6 1-691): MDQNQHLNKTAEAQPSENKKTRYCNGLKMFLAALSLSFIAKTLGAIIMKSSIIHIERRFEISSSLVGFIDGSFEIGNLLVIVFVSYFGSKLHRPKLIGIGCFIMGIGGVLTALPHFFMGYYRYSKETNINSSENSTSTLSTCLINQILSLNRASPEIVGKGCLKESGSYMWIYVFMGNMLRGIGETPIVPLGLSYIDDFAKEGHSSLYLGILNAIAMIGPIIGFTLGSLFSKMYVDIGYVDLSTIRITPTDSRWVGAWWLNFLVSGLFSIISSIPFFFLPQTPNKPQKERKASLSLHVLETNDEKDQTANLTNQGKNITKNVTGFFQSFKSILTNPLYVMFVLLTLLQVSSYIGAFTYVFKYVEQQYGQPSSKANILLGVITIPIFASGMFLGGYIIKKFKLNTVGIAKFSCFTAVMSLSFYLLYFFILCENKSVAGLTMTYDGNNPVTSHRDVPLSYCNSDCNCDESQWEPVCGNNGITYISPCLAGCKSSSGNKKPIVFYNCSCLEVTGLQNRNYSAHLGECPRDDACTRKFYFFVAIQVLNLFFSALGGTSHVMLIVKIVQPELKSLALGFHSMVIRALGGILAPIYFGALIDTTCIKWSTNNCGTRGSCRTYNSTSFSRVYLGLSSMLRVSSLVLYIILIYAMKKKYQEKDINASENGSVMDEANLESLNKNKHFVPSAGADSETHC
Method: Cellular accumulation assays were performed in human embryonic kidney cells (HEK293; RRID: CVCL_0045) that were genetically engineered to overexpress human OATP1B1 ([23]–[25]). Cell lines were authenticated by Applied Biosystems AmpFISTR Identifiler testing with PCR amplification. […] All cells were used within passage 30 and verified to be Mycoplasma-free using the MycoAlert Mycoplasma Detection Kit (Lonza). At 80% to 90% confluency, cells were seeded on poly-D-lysine–coated 96-well plates 24 hours prior to the assay (2,500 cells/well), and expression of OATP1B1 was induced with 1 μg/mL doxycycline in phenol red–free DMEM.
The CCF assay uses OATP1B1-overexpressing HEK293 cells seeded and cultured as described above. During the study, cells were preincubated at room temperature (∼ 20°C) with 0.01 μmol/L EβG in prewarmed serum-free and phenol red–free DMEM for 1 hour. Following preincubation, each well was spiked with 1 μL of a stock solution containing 0.1, 1, or 10 mmol/L of positive control (EβG), negative control (glucose), test compound dissolved in Dimethylsulfoxide (DMSO), or DMSO only as a vehicle control. […] Total radioactivity was determined on a MicroBeta microplate scintillation counter (PerkinElmer), and the resulting counts were then normalized to total protein as determined using a Pierce protein assay (Thermo Fisher Scientific).

[2] = test system: P-gp; conditions: at 5 µM; ref PMID#17826829; cited from earlier work
[3] = test system: OATP1B3; conditions: cited from earlier work
[4] = test system: OATP1B1; conditions: cited from earlier work

In the case of `CO[C@@H]1[C@H](N(C)C(=O)c2ccccc2)C[C@H]2O[C@]1(C)n1c3ccccc3c3c4c(c5c6ccccc6n2c5c31)C(=O)NC4` [Midostaurin], the “hit in CCF assay (efflux >50% relative to EβG)” value [1] is listed as “hits”, the P-gp inhibition [2] is listed as 83-91% and the IC50 [3] is listed as 5 µM. For the same compound, the “reported to inhibit OATP1B1” value ([4]; literature reports, ref not given) was “reported to inhibit OATP1B1” and the IC50 ([4]; read-out: OATP1B1 IC50) was 0.3 to 1.3 µM.

— paper PMC11417675, “Systematic Evaluation of Tyrosine Kinase Inhibitors as OATP1B1 Substrates Using a Competitive Counterflow Screen” (Cancer Research Communications, 2024)
